Drawing on publication doi:10.1101/2023.08.01.551545, this text covers binding for four molecules.

No constants are given. Whether binding was seen depends on the method and setting. In cells and extracts the contact can be indirect. These calls come from enrichment with a bait or labelling near it, and not all partners need be listed. For some assays here: No binding means not detected with the bait. Tags and fused reporters may be left off the sequences shown.

Holding throughout (experiment): affinity purification with mass spectrometry
Assay [1] addresses T1, HRDE-2::2xTy1::GFP (C. elegans) (UniProt Q22058).
T1 sequence: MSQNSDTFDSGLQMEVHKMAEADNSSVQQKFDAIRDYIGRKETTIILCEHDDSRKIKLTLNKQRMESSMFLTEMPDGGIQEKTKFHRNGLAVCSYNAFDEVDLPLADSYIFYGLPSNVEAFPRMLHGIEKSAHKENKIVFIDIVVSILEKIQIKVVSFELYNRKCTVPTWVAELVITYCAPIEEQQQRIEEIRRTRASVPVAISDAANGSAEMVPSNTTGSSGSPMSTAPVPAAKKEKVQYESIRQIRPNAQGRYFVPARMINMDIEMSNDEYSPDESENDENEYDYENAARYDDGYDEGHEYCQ

Assay [2] addresses T2, SIMR-1::mCherry::2xHA (C. elegans) (UniProt O01477).
T2 sequence: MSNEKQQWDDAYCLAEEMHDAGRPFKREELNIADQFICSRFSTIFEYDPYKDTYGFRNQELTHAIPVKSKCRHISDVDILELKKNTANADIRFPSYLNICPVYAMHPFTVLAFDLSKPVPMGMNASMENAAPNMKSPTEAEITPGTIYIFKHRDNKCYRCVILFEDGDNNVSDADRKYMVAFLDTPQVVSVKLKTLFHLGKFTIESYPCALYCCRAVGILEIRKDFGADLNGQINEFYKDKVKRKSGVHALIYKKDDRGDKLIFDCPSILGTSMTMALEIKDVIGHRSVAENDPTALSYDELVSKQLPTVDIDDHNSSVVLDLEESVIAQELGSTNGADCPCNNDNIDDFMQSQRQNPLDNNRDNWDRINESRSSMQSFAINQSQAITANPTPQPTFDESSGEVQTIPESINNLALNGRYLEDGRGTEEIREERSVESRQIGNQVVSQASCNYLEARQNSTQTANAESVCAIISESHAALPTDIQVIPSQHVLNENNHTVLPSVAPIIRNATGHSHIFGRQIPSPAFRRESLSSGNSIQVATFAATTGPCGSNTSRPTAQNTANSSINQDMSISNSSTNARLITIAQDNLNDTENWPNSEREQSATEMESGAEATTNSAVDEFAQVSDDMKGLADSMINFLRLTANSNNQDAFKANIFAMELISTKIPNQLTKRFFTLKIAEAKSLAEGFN

For assay [3], the target named is T3, GFP::3xFLAG::HRDE-1(HK-AA) (C. elegans) (UniProt Q09249).
T3 sequence: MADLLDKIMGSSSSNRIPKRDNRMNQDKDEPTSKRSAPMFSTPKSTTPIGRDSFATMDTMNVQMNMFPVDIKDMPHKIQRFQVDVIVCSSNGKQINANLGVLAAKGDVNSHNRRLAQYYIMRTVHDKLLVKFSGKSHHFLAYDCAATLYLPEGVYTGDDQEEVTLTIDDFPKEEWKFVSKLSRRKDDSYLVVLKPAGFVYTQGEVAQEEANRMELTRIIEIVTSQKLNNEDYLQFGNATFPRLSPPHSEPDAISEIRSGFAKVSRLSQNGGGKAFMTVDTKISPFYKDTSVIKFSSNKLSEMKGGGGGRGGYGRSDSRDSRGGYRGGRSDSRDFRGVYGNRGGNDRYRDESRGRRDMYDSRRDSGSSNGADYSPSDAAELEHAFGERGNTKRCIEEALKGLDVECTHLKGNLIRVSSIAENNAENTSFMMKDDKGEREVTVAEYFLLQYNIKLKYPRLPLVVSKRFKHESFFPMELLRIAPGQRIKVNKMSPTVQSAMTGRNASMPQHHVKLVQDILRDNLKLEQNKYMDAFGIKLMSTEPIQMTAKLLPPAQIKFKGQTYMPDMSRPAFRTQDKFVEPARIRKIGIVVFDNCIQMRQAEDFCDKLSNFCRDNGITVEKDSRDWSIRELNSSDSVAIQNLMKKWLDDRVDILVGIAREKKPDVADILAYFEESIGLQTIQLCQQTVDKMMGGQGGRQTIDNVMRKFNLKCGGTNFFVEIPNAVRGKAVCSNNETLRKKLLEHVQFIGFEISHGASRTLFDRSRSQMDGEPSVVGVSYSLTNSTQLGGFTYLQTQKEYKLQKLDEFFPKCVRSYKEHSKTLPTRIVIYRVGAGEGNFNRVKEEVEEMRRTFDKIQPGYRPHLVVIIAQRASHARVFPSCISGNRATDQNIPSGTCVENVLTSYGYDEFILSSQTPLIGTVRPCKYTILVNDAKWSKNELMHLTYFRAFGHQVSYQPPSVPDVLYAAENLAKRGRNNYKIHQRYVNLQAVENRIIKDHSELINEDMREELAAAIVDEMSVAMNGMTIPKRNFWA

B1: SIMR-1 (untagged, in the HRDE-2::2xTy1::GFP strain) (protein, UniProt O01477 1-691)
chain: MSNEKQQWDDAYCLAEEMHDAGRPFKREELNIADQFICSRFSTIFEYDPYKDTYGFRNQELTHAIPVKSKCRHISDVDILELKKNTANADIRFPSYLNICPVYAMHPFTVLAFDLSKPVPMGMNASMENAAPNMKSPTEAEITPGTIYIFKHRDNKCYRCVILFEDGDNNVSDADRKYMVAFLDTPQVVSVKLKTLFHLGKFTIESYPCALYCCRAVGILEIRKDFGADLNGQINEFYKDKVKRKSGVHALIYKKDDRGDKLIFDCPSILGTSMTMALEIKDVIGHRSVAENDPTALSYDELVSKQLPTVDIDDHNSSVVLDLEESVIAQELGSTNGADCPCNNDNIDDFMQSQRQNPLDNNRDNWDRINESRSSMQSFAINQSQAITANPTPQPTFDESSGEVQTIPESINNLALNGRYLEDGRGTEEIREERSVESRQIGNQVVSQASCNYLEARQNSTQTANAESVCAIISESHAALPTDIQVIPSQHVLNENNHTVLPSVAPIIRNATGHSHIFGRQIPSPAFRRESLSSGNSIQVATFAATTGPCGSNTSRPTAQNTANSSINQDMSISNSSTNARLITIAQDNLNDTENWPNSEREQSATEMESGAEATTNSAVDEFAQVSDDMKGLADSMINFLRLTANSNNQDAFKANIFAMELISTKIPNQLTKRFFTLKIAEAKSLAEGFN
Turning to B1, the binding entry in assay [1] is on record as “no binding”.

B2: NRDE-3, nuclear Argonaute protein (protein, UniProt Q21691 1-1057)
chain: MDLLDKVMGEMGSKPGSTAKKPATSASSTPRTNVWGTAKKPSSQQQPPKPLFTTPGSQQGSLGGRIPKREHTDRTGPDPKRKPLGGLSVPDSFNNFGTFRVQMNAWNLDISKMDERISRIMFRATLVHTDGRRFELSLGVSAFSGDVNRQQRRQAQCLLFRAWFKRNPELFKGMTDPAIAAYDAAETIYVGCSFFDVELTEHVCHLTEADFSPQEWKIVSLISRRSGSTFEIRIKTNPPIYTRGPNALTLENRSELTRIIEAITDQCLHNEKFLLYSSGTFPTKGGDIASPDEVTLIKSGFVKTTKIVDRDGVPDAIMTVDTTKSPFYKDTSLLKFFTAKMDQLTNSGGGPRGHNGGRERRDGGGNSRKYDDRRSPRDGEIDYDERTVSHYQRQFQDERISDGMLNTLKQSLKGLDCQPIHLKDSKANRSIMIDEIHTGTADSVTFEQKLPDGEMKLTSITEYYLQRYNYRLKFPHLPLVTSKRAKCYDFYPMELMSILPGQRIKQSHMTVDIQSYMTGKMSSLPDQHIKQSKLVLTEYLKLGDQPANRQMDAFRVSLKSIQPIVTNAHWLSPPDMKFANNQLYSLNPTRGVRFQTNGKFVMPARVKSVTIINYDKEFNRNVDMFAEGLAKHCSEQGMKFDSRPNSWKKVNLGSSDRRGTKVEIEEAIRNGVTIVFGIIAEKRPDMHDILKYFEEKLGQQTIQISSETADKFMRDHGGKQTIDNVIRKLNPKCGGTNFLIDVPESVGHRVVCNNSAEMRAKLYAKTQFIGFEMSHTGARTRFDIQKVMFDGDPTVVGVAYSLKHSAQLGGFSYFQESRLHKLTNLQEKMQICLNAYEQSSSYLPETVVVYRVGSGEGDYPQIVNEVNEMKLAARKKKHGYNPKFLVICTQRNSHIRVFPEHINERGKSMEQNVKSGTCVDVPGASHGYEEFILCCQTPLIGTVKPTKYTIIVNDCRWSKNEIMNVTYHLAFAHQVSYAPPAIPNVSYAAQNLAKRGHNNYKTHTKLVDMNDYSYRIKEKHEEIISSEEVDDILMRDFIETVSNDLNAMTINGRNFWA
Turning to B2, in assay [2], the binding entry is listed as “binds”.

B3: HRDE-2 (untagged, found or sought by mass spectrometry) (protein, UniProt Q22058 1-305)
chain: MSQNSDTFDSGLQMEVHKMAEADNSSVQQKFDAIRDYIGRKETTIILCEHDDSRKIKLTLNKQRMESSMFLTEMPDGGIQEKTKFHRNGLAVCSYNAFDEVDLPLADSYIFYGLPSNVEAFPRMLHGIEKSAHKENKIVFIDIVVSILEKIQIKVVSFELYNRKCTVPTWVAELVITYCAPIEEQQQRIEEIRRTRASVPVAISDAANGSAEMVPSNTTGSSGSPMSTAPVPAAKKEKVQYESIRQIRPNAQGRYFVPARMINMDIEMSNDEYSPDESENDENEYDYENAARYDDGYDEGHEYCQ
As for B3, the binding entry in assay [2] is “no binding”; in assay [3], “binds”.

B4: HRDE-1, nuclear Argonaute protein (untagged, in the HRDE-2::2xTy1::GFP strain) (protein, UniProt Q09249 1-1032)
chain: MADLLDKIMGSSSSNRIPKRDNRMNQDKDEPTSKRSAPMFSTPKSTTPIGRDSFATMDTMNVQMNMFPVDIKDMPHKIQRFQVDVIVCSSNGKQINANLGVLAAKGDVNSHNRRLAQYYIMRTVHDKLLVKFSGKSHHFLAYDCAATLYLPEGVYTGDDQEEVTLTIDDFPKEEWKFVSKLSRRKDDSYLVVLKPAGFVYTQGEVAQEEANRMELTRIIEIVTSQKLNNEDYLQFGNATFPRLSPPHSEPDAISEIRSGFAKVSRLSQNGGGKAFMTVDTKISPFYKDTSVIKFSSNKLSEMKGGGGGRGGYGRSDSRDSRGGYRGGRSDSRDFRGVYGNRGGNDRYRDESRGRRDMYDSRRDSGSSNGADYSPSDAAELEHAFGERGNTKRCIEEALKGLDVECTHLKGNLIRVSSIAENNAENTSFMMKDDKGEREVTVAEYFLLQYNIKLKYPRLPLVVSKRFKHESFFPMELLRIAPGQRIKVNKMSPTVQSAMTGRNASMPQHHVKLVQDILRDNLKLEQNKYMDAFGIKLMSTEPIQMTAKLLPPAQIKFKGQTYMPDMSRPAFRTQDKFVEPARIRKIGIVVFDNCIQMRQAEDFCDKLSNFCRDNGITVEKDSRDWSIRELNSSDSVAIQNLMKKWLDDRVDILVGIAREKKPDVHDILKYFEESIGLQTIQLCQQTVDKMMGGQGGRQTIDNVMRKFNLKCGGTNFFVEIPNAVRGKAVCSNNETLRKKLLEHVQFIGFEISHGASRTLFDRSRSQMDGEPSVVGVSYSLTNSTQLGGFTYLQTQKEYKLQKLDEFFPKCVRSYKEHSKTLPTRIVIYRVGAGEGNFNRVKEEVEEMRRTFDKIQPGYRPHLVVIIAQRASHARVFPSCISGNRATDQNIPSGTCVENVLTSYGYDEFILSSQTPLIGTVRPCKYTILVNDAKWSKNELMHLTYFRAFGHQVSYQPPSVPDVLYAAENLAKRGRNNYKIHQRYVNLQAVENRIIKDHSELINEDMREELAAAIVDEMSVAMNGMTIPKRNFWA
Consider B4, for which the binding entry in assay [1] is recorded as “binds”.
